Experiment [1] addresses T1, Heterogeneous nuclear ribonucleoprotein M (hnRNPM) (human (endogenous in A549)) (UniProt P52272).
T1 sequence: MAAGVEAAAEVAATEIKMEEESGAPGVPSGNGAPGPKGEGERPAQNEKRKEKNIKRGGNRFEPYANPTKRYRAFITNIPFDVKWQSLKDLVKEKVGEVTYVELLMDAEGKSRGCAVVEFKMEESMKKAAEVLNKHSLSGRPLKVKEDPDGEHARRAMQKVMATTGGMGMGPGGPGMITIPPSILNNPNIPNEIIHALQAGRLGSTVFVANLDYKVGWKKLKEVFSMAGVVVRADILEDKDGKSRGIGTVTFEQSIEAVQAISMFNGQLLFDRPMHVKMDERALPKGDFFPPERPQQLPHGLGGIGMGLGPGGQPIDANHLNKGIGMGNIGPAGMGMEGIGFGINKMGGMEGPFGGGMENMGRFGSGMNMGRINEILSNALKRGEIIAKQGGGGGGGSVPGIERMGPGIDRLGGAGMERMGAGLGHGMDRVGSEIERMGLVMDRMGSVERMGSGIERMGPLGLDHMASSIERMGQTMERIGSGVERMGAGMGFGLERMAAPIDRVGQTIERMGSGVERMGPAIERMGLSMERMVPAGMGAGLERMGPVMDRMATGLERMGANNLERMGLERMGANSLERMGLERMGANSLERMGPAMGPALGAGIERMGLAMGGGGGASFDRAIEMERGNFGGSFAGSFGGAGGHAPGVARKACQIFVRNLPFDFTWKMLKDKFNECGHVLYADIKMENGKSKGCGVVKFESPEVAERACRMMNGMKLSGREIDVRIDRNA
The experiment can be described thus: co-IP.

Chains of the proteins cited; added tags and fusions are not shown.
UniProt P15682: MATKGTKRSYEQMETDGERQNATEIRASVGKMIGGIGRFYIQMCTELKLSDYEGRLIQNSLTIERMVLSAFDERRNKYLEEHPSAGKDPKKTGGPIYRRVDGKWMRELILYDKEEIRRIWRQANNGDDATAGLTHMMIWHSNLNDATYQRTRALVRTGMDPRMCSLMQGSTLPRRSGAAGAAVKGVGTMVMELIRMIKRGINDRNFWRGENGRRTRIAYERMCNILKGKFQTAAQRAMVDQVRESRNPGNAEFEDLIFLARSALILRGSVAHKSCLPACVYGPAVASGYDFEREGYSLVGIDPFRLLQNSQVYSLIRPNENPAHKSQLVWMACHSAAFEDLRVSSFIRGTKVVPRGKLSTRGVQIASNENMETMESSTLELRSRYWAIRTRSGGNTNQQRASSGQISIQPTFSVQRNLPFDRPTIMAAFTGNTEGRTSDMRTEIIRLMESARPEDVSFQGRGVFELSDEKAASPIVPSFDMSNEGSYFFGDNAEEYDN
UniProt P03427: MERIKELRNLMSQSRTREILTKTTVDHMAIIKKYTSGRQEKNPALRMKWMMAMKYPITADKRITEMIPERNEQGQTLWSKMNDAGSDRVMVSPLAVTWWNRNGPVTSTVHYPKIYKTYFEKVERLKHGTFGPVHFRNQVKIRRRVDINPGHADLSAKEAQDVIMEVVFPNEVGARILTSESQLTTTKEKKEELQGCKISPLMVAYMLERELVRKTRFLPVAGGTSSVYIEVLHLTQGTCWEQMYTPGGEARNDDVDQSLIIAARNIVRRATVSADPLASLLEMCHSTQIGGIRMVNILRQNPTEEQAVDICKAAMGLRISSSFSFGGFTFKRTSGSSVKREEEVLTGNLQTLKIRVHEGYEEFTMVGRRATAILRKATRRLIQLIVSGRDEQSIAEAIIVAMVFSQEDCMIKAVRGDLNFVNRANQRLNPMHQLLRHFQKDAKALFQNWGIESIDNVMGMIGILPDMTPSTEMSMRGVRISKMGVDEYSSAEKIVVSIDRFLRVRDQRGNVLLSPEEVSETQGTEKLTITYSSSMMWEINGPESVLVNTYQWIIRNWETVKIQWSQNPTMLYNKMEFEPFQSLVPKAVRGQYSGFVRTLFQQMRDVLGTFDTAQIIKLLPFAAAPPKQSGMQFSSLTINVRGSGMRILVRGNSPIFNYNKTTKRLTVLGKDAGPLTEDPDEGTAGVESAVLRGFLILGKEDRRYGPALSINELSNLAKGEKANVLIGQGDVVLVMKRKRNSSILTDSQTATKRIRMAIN

Substrate in the experiment “co-IP”: NP of influenza A/WSN/33 (WSN, H1N1) virus (influenza A/WSN/33 (WSN, H1N1) virus) (UniProt P15682)
The experiment can be described thus: co-IP.

Results are given in words; binding and its absence hold for the method and conditions named. In cells and extracts the contact can be indirect. Some results given as binding are weak or reduced against the parent protein; the word gives no strength.

Turning to “NP of influenza A/WSN/33 (WSN, H1N1) virus (from UniProt P15682 1-498)”, the binding entry in experiment [1] is “binds”.

“PB2 of influenza A/WSN/33 (WSN, H1N1) virus (from UniProt P03427 1-759)”: the binding entry in experiment [1] is “binds”.

B1: Heterogeneous nuclear ribonucleoprotein M (hnRNPM) (protein, UniProt P52272 1-730)
chain: MAAGVEAAAEVAATEIKMEEESGAPGVPSGNGAPGPKGEGERPAQNEKRKEKNIKRGGNRFEPYANPTKRYRAFITNIPFDVKWQSLKDLVKEKVGEVTYVELLMDAEGKSRGCAVVEFKMEESMKKAAEVLNKHSLSGRPLKVKEDPDGEHARRAMQKVMATTGGMGMGPGGPGMITIPPSILNNPNIPNEIIHALQAGRLGSTVFVANLDYKVGWKKLKEVFSMAGVVVRADILEDKDGKSRGIGTVTFEQSIEAVQAISMFNGQLLFDRPMHVKMDERALPKGDFFPPERPQQLPHGLGGIGMGLGPGGQPIDANHLNKGIGMGNIGPAGMGMEGIGFGINKMGGMEGPFGGGMENMGRFGSGMNMGRINEILSNALKRGEIIAKQGGGGGGGSVPGIERMGPGIDRLGGAGMERMGAGLGHGMDRVGSEIERMGLVMDRMGSVERMGSGIERMGPLGLDHMASSIERMGQTMERIGSGVERMGAGMGFGLERMAAPIDRVGQTIERMGSGVERMGPAIERMGLSMERMVPAGMGAGLERMGPVMDRMATGLERMGANNLERMGLERMGANSLERMGLERMGANSLERMGPAMGPALGAGIERMGLAMGGGGGASFDRAIEMERGNFGGSFAGSFGGAGGHAPGVARKACQIFVRNLPFDFTWKMLKDKFNECGHVLYADIKMENGKSKGCGVVKFESPEVAERACRMMNGMKLSGREIDVRIDRNA
For B1, the binding result in “co-IP” is on record as “binds”.

Values taken from paper PMC12172489.
